Where two headings read alike, the source gives them in different places. These are yes or no findings as the source states them, for the method shown. In cells and extracts the contact can be indirect. A yes stands for co-enrichment or nearness to the bait. Other partners may have been found. Sequences can lack the tags named with a protein. Each block holds one molecule with its values, some of them ahead of it.
Key:
Assay in all cases: affinity purification with mass spectrometry
[1] = biological target: T1, AUR1 (α Aurora kinase 1) with C-terminal GS^RHINO or GS^YELLOW TAP tag (A. thaliana) (UniProt Q9M077)
T1 sequence: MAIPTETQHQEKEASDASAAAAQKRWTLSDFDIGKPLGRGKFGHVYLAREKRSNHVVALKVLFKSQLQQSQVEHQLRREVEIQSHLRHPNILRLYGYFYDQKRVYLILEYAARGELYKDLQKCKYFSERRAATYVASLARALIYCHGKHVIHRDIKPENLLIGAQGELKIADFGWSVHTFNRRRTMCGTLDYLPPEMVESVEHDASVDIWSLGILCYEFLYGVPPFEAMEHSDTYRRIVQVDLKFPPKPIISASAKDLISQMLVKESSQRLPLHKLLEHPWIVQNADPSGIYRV

The chains behind the UniProt entries cited, without tags or fusion partners. Where a name states a change or a piece, a line headed by the entry shows the natural chain unless it says otherwise.
UniProt O04294: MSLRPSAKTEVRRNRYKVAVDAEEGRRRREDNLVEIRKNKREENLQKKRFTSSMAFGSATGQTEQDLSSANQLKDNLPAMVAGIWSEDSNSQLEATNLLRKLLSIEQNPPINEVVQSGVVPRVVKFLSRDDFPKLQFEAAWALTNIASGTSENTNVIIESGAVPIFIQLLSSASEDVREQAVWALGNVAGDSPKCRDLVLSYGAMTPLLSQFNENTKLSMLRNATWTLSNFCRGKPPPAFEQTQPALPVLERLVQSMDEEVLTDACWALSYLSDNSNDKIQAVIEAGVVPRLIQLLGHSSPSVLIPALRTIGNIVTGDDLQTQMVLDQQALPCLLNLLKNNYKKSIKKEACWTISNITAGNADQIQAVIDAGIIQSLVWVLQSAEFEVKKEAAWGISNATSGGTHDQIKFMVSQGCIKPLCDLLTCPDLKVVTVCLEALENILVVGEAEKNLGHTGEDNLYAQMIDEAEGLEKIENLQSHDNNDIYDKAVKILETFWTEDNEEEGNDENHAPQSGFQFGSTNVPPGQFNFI
UniProt O80480: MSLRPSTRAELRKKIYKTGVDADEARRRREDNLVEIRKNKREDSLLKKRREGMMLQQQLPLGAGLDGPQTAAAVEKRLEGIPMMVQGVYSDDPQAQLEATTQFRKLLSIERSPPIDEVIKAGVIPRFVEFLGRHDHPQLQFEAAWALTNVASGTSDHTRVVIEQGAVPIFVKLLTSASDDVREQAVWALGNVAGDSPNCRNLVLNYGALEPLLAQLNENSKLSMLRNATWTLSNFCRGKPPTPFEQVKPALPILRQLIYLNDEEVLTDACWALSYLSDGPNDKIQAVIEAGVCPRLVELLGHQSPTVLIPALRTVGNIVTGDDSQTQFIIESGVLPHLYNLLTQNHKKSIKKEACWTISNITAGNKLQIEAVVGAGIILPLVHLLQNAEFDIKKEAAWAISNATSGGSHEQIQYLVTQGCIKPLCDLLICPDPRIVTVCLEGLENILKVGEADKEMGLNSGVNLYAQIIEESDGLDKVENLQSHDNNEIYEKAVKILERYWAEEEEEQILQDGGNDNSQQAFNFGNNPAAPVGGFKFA
UniProt F4JPV4: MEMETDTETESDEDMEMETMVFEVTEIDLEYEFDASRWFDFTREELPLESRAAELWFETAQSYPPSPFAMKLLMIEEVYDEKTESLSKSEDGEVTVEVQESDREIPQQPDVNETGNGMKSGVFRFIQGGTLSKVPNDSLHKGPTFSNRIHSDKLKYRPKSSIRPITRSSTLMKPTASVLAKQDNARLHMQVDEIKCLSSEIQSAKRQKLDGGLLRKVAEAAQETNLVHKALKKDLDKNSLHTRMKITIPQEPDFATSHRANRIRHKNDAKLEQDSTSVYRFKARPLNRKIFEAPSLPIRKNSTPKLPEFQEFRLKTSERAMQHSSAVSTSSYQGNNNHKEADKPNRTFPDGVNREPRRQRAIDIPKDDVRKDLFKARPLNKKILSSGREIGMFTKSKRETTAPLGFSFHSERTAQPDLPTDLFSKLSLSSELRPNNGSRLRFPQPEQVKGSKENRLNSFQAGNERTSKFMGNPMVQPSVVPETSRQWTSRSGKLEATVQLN
UniProt Q96321: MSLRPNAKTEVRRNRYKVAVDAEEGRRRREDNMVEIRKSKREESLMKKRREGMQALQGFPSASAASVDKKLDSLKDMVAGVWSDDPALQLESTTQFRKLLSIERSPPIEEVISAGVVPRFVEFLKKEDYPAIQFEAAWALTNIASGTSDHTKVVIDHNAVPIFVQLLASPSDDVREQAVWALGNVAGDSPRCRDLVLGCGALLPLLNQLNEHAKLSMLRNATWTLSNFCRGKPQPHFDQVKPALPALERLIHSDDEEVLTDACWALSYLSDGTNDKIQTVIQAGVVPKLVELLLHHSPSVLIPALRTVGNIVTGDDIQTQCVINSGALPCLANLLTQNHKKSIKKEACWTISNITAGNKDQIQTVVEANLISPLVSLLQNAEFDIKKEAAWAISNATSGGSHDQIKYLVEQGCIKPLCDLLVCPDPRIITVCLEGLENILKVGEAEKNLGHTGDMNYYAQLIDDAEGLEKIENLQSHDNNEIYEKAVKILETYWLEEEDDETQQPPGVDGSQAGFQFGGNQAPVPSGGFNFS
UniProt F4JL11: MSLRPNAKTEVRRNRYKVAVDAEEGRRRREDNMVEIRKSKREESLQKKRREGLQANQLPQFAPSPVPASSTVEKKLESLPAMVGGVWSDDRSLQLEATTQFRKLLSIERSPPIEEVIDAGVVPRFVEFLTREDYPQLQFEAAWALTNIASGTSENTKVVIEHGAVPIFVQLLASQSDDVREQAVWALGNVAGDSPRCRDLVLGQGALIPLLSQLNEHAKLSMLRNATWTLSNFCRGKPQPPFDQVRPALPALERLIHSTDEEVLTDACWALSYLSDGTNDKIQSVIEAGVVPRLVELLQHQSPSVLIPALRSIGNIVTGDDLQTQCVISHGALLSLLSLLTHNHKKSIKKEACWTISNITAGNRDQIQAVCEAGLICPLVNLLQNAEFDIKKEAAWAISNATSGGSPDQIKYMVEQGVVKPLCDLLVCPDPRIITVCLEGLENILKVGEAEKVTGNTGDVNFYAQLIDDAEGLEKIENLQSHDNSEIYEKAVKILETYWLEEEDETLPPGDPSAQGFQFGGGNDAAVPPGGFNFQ

[2] = biological target: T2, AUR2 (α Aurora kinase 2) with GS^TEV TAP tag (A. thaliana) (UniProt Q683C9)
T2 sequence: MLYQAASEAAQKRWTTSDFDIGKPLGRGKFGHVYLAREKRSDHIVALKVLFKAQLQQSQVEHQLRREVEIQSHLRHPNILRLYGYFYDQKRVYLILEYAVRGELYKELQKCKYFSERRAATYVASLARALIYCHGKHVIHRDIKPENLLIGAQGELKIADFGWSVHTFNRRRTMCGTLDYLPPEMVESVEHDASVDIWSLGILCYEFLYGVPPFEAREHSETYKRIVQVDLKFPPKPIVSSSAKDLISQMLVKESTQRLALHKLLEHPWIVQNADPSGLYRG

[3] = biological target: T3, AUR1 (α Aurora kinase 1) with GS^TEV TAP tag (A. thaliana) (UniProt Q9M077)
T3 sequence: T1 sequence

[4] = biological target: T1, AUR1 (α Aurora kinase 1) with C-terminal GS^RHINO or GS^YELLOW TAP tag (A. thaliana); remark: listed apart in the source

Molecule: IMPA3 (from UniProt O04294 1-531)
binding [1]: binds

Molecule: IMPA4 (from UniProt O80480 1-538)
binding [1]: binds

Molecule: KPNB3 (karyopherin subunit beta 3)
binding [1]: binds

Molecule: KPNB2 (karyopherin subunit beta 2)
binding [1]: binds

B2: TPX2 (protein, UniProt F4I2H7 1-790)
chain: MEATAEESVSTLVTTMVDETYEFLAPRWFDFVNGETEDESRRAELWFQSALSCAPSPSVPRIKARRSFKVEAMCNFNEAEEETLKDKEPLEPVVPIVSLQSQPSQAKKAEVAPSKASTVKPSRISSKDAEVNNKTVDASDPTTEPIEDKENIAPACTPKPPMQFSLGAKSVDLKKQQTARKIASLLKNPSTLRPKNQSQAKGSHQKSVKGETNLNNIASTTNLIQENQAIKRQKLDDGKSRQILNPKPATLLHKTRNGLVNTGFNLCPSVTKHTPKENRKVYVREQIAPFVSTAELMKKFQTSTRDLFVQNRPKLTLTRPKEPEFVTSQRARPLRVKSSAELEEEMLAKIPKFKARPVNKKILAAPALPAPQRSTPHLPEFQEFHLQTMARANQHAETSSIASTEVSKQHNDQKHHLTEPKSPVLQTMLRARPTIAKTTAELEQEELEKAPKFKAKPLNKKIFESKGEMGIFCNTKKHITIPQEFHFATDERISRPESVLDIFDKLSLNSESCHEKPLPRNTAPNPFNLKTEERGAEKEKKFYMELMYKKLGDVKARVPKANPYPYTTDYPVVPPKPEPKQCTQPEPFQLESLVRHEEEMRREREERRRMETEEAQKRLFKAQPVIKEDPIPVPEKVRMPLTEIQEFNLHVEHRAVERADFDHKIKEKENQYKRYREESEAAKMVEEERALKQMRKTMVPHARPVPNFNKPFLPQKSNKGTTKAKSPNLRVIKRTERRTMMARPTISAATSASAVHCLMYPGSSFNKLKKKTVLTNIVHCLMYPDSSLLN
binding [4]: binds

Now from value to molecule:

binding [2]: binds
binding [1]: binds
binding [3]: binds
Molecule: TPXL2 (TPX-Like2) (from UniProt F4JPV4)

binding [2]: binds
binding [1]: binds
binding [3]: binds
Molecule: TPXL3 (TPX-Like3)

binding [2]: binds
binding [1]: binds
binding [3]: binds
Molecule: IMPA1 (α importin 1) (from UniProt Q96321 1-532)

binding [2]: binds
binding [1]: binds
binding [3]: binds
Molecule: IMPA2 (from UniProt F4JL11 1-535)

binding [4]: binds
B1: IMPA6 (protein, UniProt Q9FWY7 1-538)
chain: MSYKPSAKTEVRRNRYKVSVDADEGRRRREDNMVEIRKNKREENLQKKRREGFNPSMASQPGQDFSSSLPTETRLENIQQMIAGVMSEDRDLQLEATASFRRLLSIERNPPINEVVQSGVVPHIVQFLSRDDFTQLQFEAAWALTNIASGTSENTRVIIDSGAVPLFVKLLSSASEEVREQAVWALGNVAGDSPKCRDHVLSCEAMMSLLAQFHEHSKLSMLRNATWTLSNFCRGKPQPAFEQTKAALPALERLLHSTDEEVLTDASWALSYLSDGTNEKIQTVIDAGVIPRLVQLLAHPSPSVLIPALRTIGNIVTGDDIQTQAVISSQALPGLLNLLKNTYKKSIKKEACWTISNITAGNTSQIQEVFQAGIIRPLINLLEIGEFEIKKEAVWAISNATSGGNHDQIKFLVSQGCIRPLCDLLPCPDPRVVTVTLEGLENILKVGEAEKNLGNTGNDNLYAQMIEDADGLDKIENLQSHDNNEIYEKAVKILESYWAADDEEEDIGGVDAPENVQSSGFQFGNQSGNAPTGGFNFG

binding [4]: binds
B3: KPNB1 (karyopherin subunit beta 1) (protein, UniProt Q9FJD4 1-870)
chain: MAMEVTQLLINAQSIDGTVRKHAEESLKQFQEQNLAGFLLSLAGELANDEKPVDSRKLAGLVLKNALDAKEQHRKYELVQRWLALDMSTKSQIRAFLLKTLSAPVPDVRSTASQVIAKVAGIELPQKQWPELIVSLLSNIHQLPAHVKQATLETLGYLCEEVSPDVVEQEHVNKILTAVVQGMNAAEGNTDVRLAATRALYMALGFAQANFNNDMERDYIMRVVCEATLSPEVKIRQAAFECLVSIASTYYEKLAHYMQDIFNITAKAVREDDESVALQAIEFWSSICDEEIDILEEYGGEFAGDSDVPCFYFTKQALPGLVPLLLETLLKQEEDQDLDEGAWNIAMAGGTCLGLVARAVGDDIVPHVMPFIEEKISKPDWREREAATYAFGSILEGPSADKLMAIVNAALTFMLNALTNDPSNHVKDTTAWTLGRIFEFLHGSTIETPIINQANCQQIITVLIQSMNDAPNVAEKACGALYFLAQGYEDIGPSSPLTPFFQEIIKSLLAVAHREDATESRLRTAAYEALNEVVRCSTDETSTMVLQLVPVIMMELHNTLEGEKLSLDEREKQNELQGLLCGCLQVIIQKLGSEPTKSKFMEYADQMMGLFLRVFGCRSATAHEEAMLAIGALAYAAGPNFAKYMPEFYKYLEMGLQNFEEYQVCAVTVGVVGDVCRALEDKILPYCDGIMTQLLKDLSSNQLHRSVKPPIFSCFGDIALAIGEDFDKYWRYSMPMLQSAAELSAHSAGADDEMTEYTNSLRNGILEAYSGIFQGFKNSAKTQLLIPFAPHILQFLDSIYMEKDMDEVVMKTAIGVLGDLADTLGSHVGGLIQQSVSSKEFLNECLSSEDHTIKEAAEWAKHAITRAISV

— doi:10.1101/431791
